Data reported in patent US20050288273A1, “Antibacterial agents” (priority 2003, published 2005).

melting point: 238 to 240 °C
SMILES: CC(C)C(=O)NC[C@H]1CN(c2ccc3c(c2)CCCc2cn[nH]c2-3)C(=O)O1
